Assay results reported in PubChem BioAssay AID1347076 (National Center for Advancing Translational Sciences (NCATS), 2019).
Screen size: about 400,000 compounds; about 13,000 (3.2%) were called active. The shares of active, inactive and inconclusive entries below differ from those in the screen. Calls follow the shape of the dose curve; as a rule, active = well fitted cell-killing curve with a large enough effect; inconclusive = small, poorly fitted or top-dose-only effect, or effect the other way; inactive = flat fitted curve, though single readings scatter. Where the call is inconclusive, the potency comes from a doubtful curve fit.

Assay: qHTS assay for MDR1-selective chemotherapeutics: Primary screen using the drug-selected MDR subline cells KB-V1; also: nearly all actives have a fitted effect of over 60% in size
Details: KB-V1 MDR cells viability, CellTiter-Glo, 72 h; series mostly up to 46.1 µM
Summary of the method: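 Cells of the MDR subline KB-V1 are plated, dosed with compound at multiple concentrations, and incubated 72 h at 37 degrees C; CellTiter-Glo is then added and luminescence read after 10 min.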
Potency is read from the fitted curve at half-maximal effect.

Row | SMILES | Potency
1 | COc1ccccc1CCCNC(=O)C1CCC(=O)N(CCN2CCOCC2)C1 (stereo not given) | inconclusive: 29.1 µM [rising, single point]
2 | COc1cc(/C=C/c2nc3cc(Cl)ccc3c(=O)n2-c2ccc(C)cc2C)cc(OC)c1OC | inactive
3 | COC(=O)[C@H](Cc1ccccc1)NC(=O)Nc1ccc(OC)cc1 | inconclusive: 0.0184 µM [cytotoxic, full curve]
4 | O=C(Nc1nc2ccccc2[nH]1)c1ccccc1F | active: 7.31 µM
5 | CC1CN(C(=O)N2c3ccccc3Sc3ccccc32)CC(C)O1 (stereo not given) | inactive
6 | CCc1c(C)c(C#N)c2nc3ccccc3n2c1-n1nc(C)cc1C | inconclusive: 11.6 µM [cytotoxic, partial curve, poor fit]
7 | CSCCC(NS(=O)(=O)c1ccc(Cl)c(Cl)c1)C(=O)O (stereo not given) | inconclusive: 18.4 µM [rising, single point]
8 | CCCn1c(SCC(=O)Nc2nnc(C(C)C)s2)nc2c1c(=O)n(C)c(=O)n2C | inconclusive: 20.6 µM [cytotoxic, single point]
9 | O=C(Nc1ccc(-n2cccc2)cc1)C1CC1 | inactive
10 | Cc1cc(Br)ccc1OCCCCN1CCCCC1 | inconclusive: 16.4 µM [cytotoxic, partial curve, poor fit]
11 | COc1ccc(NC(=O)C=C(C)C)cc1Cl | inconclusive: 20.6 µM [cytotoxic, single point]
12 | CCC(=O)N1CCc2cc(S(=O)(=O)NC(C(=O)NCc3ccc(F)cc3)C(C)C)ccc21 (stereo not given) | inconclusive: 9.2 µM [cytotoxic, partial curve]
13 | O=C(Nc1ccc(OC(F)(F)F)cc1)c1ccccc1-n1cnnn1 | inactive
14 | COCCOc1ccc(C(F)(F)F)cc1NC(=O)CN1C(=O)NC2(CCc3ccccc32)C1=O (stereo not given) | inactive
15 | CCOC(=O)c1c(C)oc2nc(C)nc(N3CCN(c4cccc(C)c4C)CC3)c12 | inactive
16 | Cc1cc(-n2c(C)cc(C(=S)N3CCOCC3)c2C)ccc1Br | active: 8.2 µM
17 | Nc1ccccc1-c1nc2ccccc2[nH]1 | inactive
18 | Cc1cc(Nc2cccc(C(F)(F)F)c2)nc2ccc(NC(=O)c3cccnc3)cc12 | inconclusive: 20.6 µM [cytotoxic, single point]
19 | COc1ccc(Cl)cc1NC(=O)c1nnn(CC(=O)Nc2ccc(OC)c(OC)c2)c1N | inactive
20 | COc1ccc(C(CNC(=O)c2oc3ccc(OC)cc3c2C)N2CCCC2)cc1 (stereo not given) | inactive
21 | NNC(=O)c1ccc(N2CCc3ccccc32)c([N+](=O)[O-])c1 | inactive
22 | COc1cccc(CNC(=O)C(=O)NCCC2CCCCN2S(=O)(=O)c2cccs2)c1 (stereo not given) | inactive
23 | Cc1ccc(OCC(O)Cn2c(=N)n(Cc3ccccc3)c3ccccc32)cc1 (stereo not given) | active: 16.4 µM

Row | SMILES | Potency
24 | O=S1(=O)[C@H]2C[C@H](CO)O[C@@]2(CO)CN1Cc1ccc(-c2ccc(F)cc2)cc1 | inactive
25 | Cc1cccc(C)c1NC(=O)CNC(=O)C(C)NC(C)c1ccccc1Br (stereo not given) | inconclusive: 20.6 µM [cytotoxic, partial curve]
26 | Cn1c(=O)c2c(nc(CN3CCN(c4ccccc4F)CC3)n2CCCc2ccccc2)n(C)c1=O | inconclusive: 29.1 µM [cytotoxic, single point]
27 | CC(C)CCn1cnc2c(cnn2-c2ccc(Cl)cc2)c1=O | inconclusive: 29.1 µM [cytotoxic, partial curve, poor fit]
28 | CCCCCC(=O)Nc1ccc(-c2csc(C)n2)cc1 | inconclusive: 16.4 µM [cytotoxic, partial curve]
29 | COCCCNC(=O)Cc1ccccc1OC | inconclusive: 7.31 µM [rising, partial curve]
30 | CC(C)(C)NS(=O)(=O)c1cccc(S(=O)(=O)c2cccc(S(=O)(=O)NC(C)(C)C)c2)c1 | active: 14.6 µM
31 | O=S(=O)(Nc1cccc(-c2ccc(N3CCCC3)nn2)c1)c1cc(F)ccc1F | inconclusive: 29.1 µM [rising, single point]
32 | CCCCC(CC)C(=O)Nc1ccc(Nc2ccccc2)cc1 (stereo not given) | inconclusive: 29.1 µM [cytotoxic, single point]
33 | CCOc1ccc(-n2nnnc2SCC(=O)c2ccccc2)cc1 | inconclusive: 18.4 µM [cytotoxic, single point]
34 | CCCCn1nnnc1C(c1ccccc1)N1CCN(CC)CC1 (stereo not given) | inconclusive: 10.3 µM [cytotoxic, partial curve, poor fit]
35 | Cc1cc2c(cc1C)NC(c1c(C)n(C)n(-c3ccccc3)c1=O)C1=C(CC(C)(C)CC1=O)N2 (stereo not given) | inactive
36 | COc1ccc2[nH]c(CN3CCN(CC=C(C)C)C(CCO)C3)c(C)c2c1 (stereo not given) | inactive
37 | COc1ccc(NC(=O)CCCCCN2C(=O)CCC2=O)cc1Cl | inconclusive: 23.1 µM [cytotoxic, single point]
38 | CCOc1ccc(C2C(C(N)=O)=C(C)Nc3nc(-c4cccc(Cl)c4)nn32)cc1OC (stereo not given) | inconclusive: 20.6 µM [rising, partial curve, poor fit]
39 | CC1=NN(C(=O)c2cccc(Cn3nc(C)c([N+](=O)[O-])c3C)c2)C(O)(C(F)(F)F)C1 (stereo not given) | inconclusive: 23.1 µM [cytotoxic, partial curve, poor fit]
40 | COc1ccc(-n2c(SCC(=O)Nc3ccc(Cl)cc3)nc(O)c(Cc3ccccc3)c2=O)cc1 | inconclusive: 7.31 µM [rising, partial curve]
41 | CC(C)(C)OC(=O)N1CCC(C(=O)Nc2cccc(C(=O)NCCCc3ccccc3)c2)CC1 | inactive
42 | COc1ccc([C@H]2CC(=O)C=C(c3cccc(F)c3OC)C2)cc1 | inconclusive: 16.4 µM [cytotoxic, single point]
43 | Cn1nnnc1SCc1nc2scc(-c3ccc(Cl)cc3)c2c(=O)[nH]1 | inconclusive: 1.46 µM [cytotoxic, partial curve, poor fit]
44 | CCc1nc2ccccc2c(=O)n1NC(=O)c1c(O)c2ccccc2[nH]c1=O | active: 2.91 µM
45 | Cc1ccc(N(C(=O)CCC(=O)Nc2nccs2)C(C(=O)NC(C)(C)C)c2ccc(O)cc2)cc1 (stereo not given) | inconclusive: 23.1 µM [rising, single point]
